Values from PubChem BioAssay AID493246 (Drosophila RNAi Screening Center, 2011)
The deposit covers about 21,000 reagents; below is an unselected part of those that have a named target and a result. Of all reagents, 429 (2%) are marked active. 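Values are raw and not normalised between plates; calls rest on per-plate z-scores that were not deposited.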 Reagents against one gene are numbered here. Names joined by + are all predicted targets of the reagent. Reagent sequences are not shown. Not given: the amount of reagent, the time to read-out.

- Test: 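Genes fly cells need to grow and stay alive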 (primary screen)
- Cell system: Drosophila Kc and S2R+ cells
- Reagent: long dsRNA against Drosophila genes
- Detection: 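Raw, unnormalised count of remaining cells in each well; per-plate z-scores of cell number underlie the calls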
- Direction: Kc cell number and S2R+ cell number: higher = more cells remaining
- Active means: 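Counted as a hit if cell number falls by a z-score of at least 3 within its plate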

gene knocked down	reagent no.	Kc cell number, rep 1	Kc cell number, rep 2	S2R+ cell number, rep 1	S2R+ cell number, rep 2	activity call
CG11178	1	6.11e5		8.45e5		inactive
Gdap1	1	1.52e6	1.38e6	1.18e6	1.20e6	inactive
CG3434	1	1.35e6	1.43e6	1.16e6	1.18e6	inactive
CG8349	1	1.56e6	1.52e6	1.19e6	1.27e6	inactive
CG10307	1	9.92e5	1.14e6	8.31e5	7.30e5	inactive
CG30158	1	1.31e6	1.51e6	1.01e6	1.13e6	inactive
CG30158	2	1.50e6	1.54e6	1.20e6	1.36e6	inactive
CG30158	3	1.53e6	1.59e6	1.23e6	1.36e6	inactive
CG30158	4	1.57e6	1.65e6	1.24e6	1.35e6	inactive
eIF3f2	1	1.64e6	1.81e6	1.46e6	1.54e6	inactive
ppk19	1	1.56e6	1.58e6	1.01e6	1.11e6	inactive
CG7519	1	1.59e6	1.68e6	1.37e6	1.42e6	inactive
CG42372 + CG30100	1	6.21e5		8.15e5		inactive
CG6325	1	1.49e6	1.57e6	1.35e6	1.33e6	inactive
Lmx1a	1	1.21e6	1.27e6	1.35e6	1.35e6	inactive
Lmx1a	2	1.26e6	1.25e6	7.34e5	7.93e5	active
Ctf4	1	1.38e6	1.54e6	9.74e5	1.23e6	inactive
Cyp313a2	1	1.55e6	1.56e6	1.19e6	1.27e6	inactive
CG17977	1	1.52e6	1.62e6	1.22e6	1.30e6	inactive
oxt	1	1.44e6	1.47e6	1.24e6	1.28e6	inactive
Polr2J	1	1.51e6	1.62e6	1.16e6	1.33e6	inactive
CG43322	1	1.49e6	1.34e6	1.08e6	1.23e6	inactive
alien	1	1.12e6	1.25e6	8.70e5	9.41e5	inactive
MFS15	1	1.71e6	1.75e6	1.15e6	1.38e6	inactive
CG8586	1	1.42e6	1.45e6	1.16e6	1.28e6	inactive
nuf	1	1.45e6	1.47e6	1.21e6	1.37e6	inactive

Continued; the last 8 above are carried over.
gene knocked down	reagent no.	Kc cell number, rep 1	Kc cell number, rep 2	S2R+ cell number, rep 1	S2R+ cell number, rep 2	activity call
CG17977	1	1.52e6	1.62e6	1.22e6	1.30e6	inactive
oxt	1	1.44e6	1.47e6	1.24e6	1.28e6	inactive
Polr2J	1	1.51e6	1.62e6	1.16e6	1.33e6	inactive
CG43322	1	1.49e6	1.34e6	1.08e6	1.23e6	inactive
alien	1	1.12e6	1.25e6	8.70e5	9.41e5	inactive
MFS15	1	1.71e6	1.75e6	1.15e6	1.38e6	inactive
CG8586	1	1.42e6	1.45e6	1.16e6	1.28e6	inactive
nuf	1	1.45e6	1.47e6	1.21e6	1.37e6	inactive
CG15572	1	1.67e6	1.66e6	1.02e6	1.13e6	inactive
Oatp30B	1	1.40e6	1.42e6	1.05e6	1.12e6	inactive
Taf6	1	1.63e6	1.71e6	1.18e6	1.24e6	inactive
Gr63a	1	1.35e6	1.23e6	1.01e6	1.18e6	inactive
Cyp9f3	1	1.32e6	1.31e6	1.28e6	1.35e6	inactive
CG31064	1	1.74e6	1.83e6	1.10e6	1.27e6	inactive
CG31064	2	1.51e6	1.50e6	1.05e6	1.13e6	inactive
CG31064	3	1.51e6	1.50e6	9.78e5	1.10e6	inactive
CG31064	4	1.58e6	1.64e6	9.13e5	1.02e6	inactive
Or42b	1	1.64e6	1.68e6	1.40e6	1.44e6	inactive
Klp3A	1	5.80e5		9.16e5		inactive
Mst84Dd	1	1.58e6	1.75e6	1.24e6	1.30e6	inactive
CG3655	1	1.41e6	1.58e6	1.10e6	1.12e6	inactive
CG3655	2	1.55e6	1.53e6	1.08e6	1.21e6	inactive
CG3655	3	1.48e6	1.49e6	1.06e6	1.14e6	inactive
tmod	1	1.51e6	1.67e6	1.05e6	1.13e6	inactive
tmod	2	1.51e6	1.60e6	9.69e5	1.08e6	inactive
tmod	3	1.61e6	1.60e6	1.02e6	1.09e6	inactive
tmod	4	5.39e5		9.15e5		inactive
CG15011	1	1.27e6	1.47e6	1.17e6	1.00e6	inactive
CG13615	1	1.39e6	1.44e6	1.02e6	1.13e6	inactive
mRpS18C	1	1.41e6	1.42e6	9.89e5	1.02e6	inactive
axed	1	1.39e6	1.42e6	1.14e6	1.26e6	inactive
axed	2	1.50e6	1.34e6	1.23e6	1.28e6	inactive
PIP5K59B	1	1.34e6	1.37e6	1.00e6	1.11e6	inactive
PIP5K59B	2	1.53e6	1.54e6	1.31e6	1.38e6	inactive
CG12516	1	1.50e6	1.47e6	9.70e5	1.16e6	inactive
CG6984	1	1.11e6	1.18e6	6.24e5	5.49e5	active
CG9286	1	1.56e6	1.63e6	1.07e6	1.17e6	inactive
CG9997	1	1.43e6	1.46e6	1.03e6	1.14e6	inactive
CG15745 (retired record)	1	1.72e6	1.80e6	1.09e6	1.21e6	inactive
Prosbeta6	1	1.00e6	1.06e6	6.84e5	8.01e5	active
CRAT	1	1.57e6	1.68e6	1.33e6	1.44e6	inactive
